Reference: US8097654B2, “Radiolabeled 3-[3-(benzoyl-amido)benzyloxy]aspartic acid derivative and method of producing the same” (Suntory Holdings Limited, priority 2004, dated 2012)

Amino acid sequences for entries named in this document (tags omitted).
UniProt P43004, whole entry: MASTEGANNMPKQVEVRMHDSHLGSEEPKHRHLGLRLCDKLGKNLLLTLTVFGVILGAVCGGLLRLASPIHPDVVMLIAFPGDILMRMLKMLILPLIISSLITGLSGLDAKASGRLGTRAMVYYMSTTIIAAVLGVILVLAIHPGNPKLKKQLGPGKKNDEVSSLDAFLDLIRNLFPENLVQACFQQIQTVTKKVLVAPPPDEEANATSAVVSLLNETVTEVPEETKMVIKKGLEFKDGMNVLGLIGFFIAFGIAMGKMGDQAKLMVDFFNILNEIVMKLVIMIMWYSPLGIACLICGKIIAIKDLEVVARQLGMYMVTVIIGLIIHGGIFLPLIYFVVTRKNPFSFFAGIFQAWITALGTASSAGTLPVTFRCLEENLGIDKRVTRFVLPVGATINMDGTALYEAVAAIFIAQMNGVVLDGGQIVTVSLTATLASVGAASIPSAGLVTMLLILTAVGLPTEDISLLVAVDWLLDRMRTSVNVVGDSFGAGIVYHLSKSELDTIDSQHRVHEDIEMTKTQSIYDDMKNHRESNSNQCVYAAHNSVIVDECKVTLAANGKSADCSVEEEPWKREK

Molecular target: EAAT2 (Homo sapiens, UniProt P43004)
Assay: Inhibition of [14C]-glutamic acid uptake by EAAT2 expressed in MDCK or COS-1 cells
Assay type: cell-based
Parameters: expressed in transfected cells
Experimental: In accordance with a known method (Shimamoto, K. et al., Mol. Pharmacol. 53, 195-201, 1998; Bioorg. Med. Chem. Lett. 10, 2407-2410, 2000), the inhibitory activity was assayed as the ability to inhibit the uptake of [^14C]-glutamic acid by human EAAT2 and EAAT3 stably expressed in MDCK (Madin-Darby canine kidney) cells or transiently expressed in COS-1 cells. The glutamate uptake activity was assayed by incubating a mixture of 1 μM of L-[^14C]-glutamic acid with a sample compound at a predetermined concentration for 12 minutes, lysing the cells and then measuring the radioactivity incorporated into the cells with a liquid scintillator. The amount of uptake was expressed in percentage by referring the amount of uptake in the absence of a test compound (i.e., the buffer alone) as 100% and referring the amount of uptake in a sodium-free solution as 0%.

IC50 (1 μM L-[14C]-glutamic acid, 12 minutes): 3.2 ± 0.3 nM
Inhibition of EAAT2, potency compared with I-BzA-TBOA (in words): almost the same potency as I-BzA-TBOA
Structure (SMILES): CCc1ccc(C(=O)Nc2cccc(CO[C@H](C(=O)O)[C@H](N)C(=O)O)c2)cc1 [Et-BzA-TBOA, (2S,3S)-3-[3-(4-ethylbenzoylamino)benzyloxy]aspartate]
